Test results taken from article PMC11015013.
Results are given in words; binding and its absence hold for the method and conditions named. Binding seen in cells or lysates may run through a third protein. These calls come from enrichment with a bait or labelling near it, and not all partners need be listed.

The chains behind the UniProt entries cited, without tags or fusion partners.
UniProt Q9Y265: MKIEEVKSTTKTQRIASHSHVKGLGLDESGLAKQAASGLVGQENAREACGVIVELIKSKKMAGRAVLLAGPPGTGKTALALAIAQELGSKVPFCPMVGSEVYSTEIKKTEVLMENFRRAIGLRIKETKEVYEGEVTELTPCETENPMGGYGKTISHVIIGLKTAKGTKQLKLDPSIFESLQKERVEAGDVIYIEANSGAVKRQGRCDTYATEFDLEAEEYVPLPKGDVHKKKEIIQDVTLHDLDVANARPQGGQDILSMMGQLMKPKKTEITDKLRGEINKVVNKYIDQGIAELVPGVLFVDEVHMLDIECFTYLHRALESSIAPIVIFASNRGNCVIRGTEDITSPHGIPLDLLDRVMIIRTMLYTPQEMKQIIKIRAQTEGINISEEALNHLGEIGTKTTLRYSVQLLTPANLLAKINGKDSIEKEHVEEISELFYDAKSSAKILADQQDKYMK
UniProt Q9NZJ0: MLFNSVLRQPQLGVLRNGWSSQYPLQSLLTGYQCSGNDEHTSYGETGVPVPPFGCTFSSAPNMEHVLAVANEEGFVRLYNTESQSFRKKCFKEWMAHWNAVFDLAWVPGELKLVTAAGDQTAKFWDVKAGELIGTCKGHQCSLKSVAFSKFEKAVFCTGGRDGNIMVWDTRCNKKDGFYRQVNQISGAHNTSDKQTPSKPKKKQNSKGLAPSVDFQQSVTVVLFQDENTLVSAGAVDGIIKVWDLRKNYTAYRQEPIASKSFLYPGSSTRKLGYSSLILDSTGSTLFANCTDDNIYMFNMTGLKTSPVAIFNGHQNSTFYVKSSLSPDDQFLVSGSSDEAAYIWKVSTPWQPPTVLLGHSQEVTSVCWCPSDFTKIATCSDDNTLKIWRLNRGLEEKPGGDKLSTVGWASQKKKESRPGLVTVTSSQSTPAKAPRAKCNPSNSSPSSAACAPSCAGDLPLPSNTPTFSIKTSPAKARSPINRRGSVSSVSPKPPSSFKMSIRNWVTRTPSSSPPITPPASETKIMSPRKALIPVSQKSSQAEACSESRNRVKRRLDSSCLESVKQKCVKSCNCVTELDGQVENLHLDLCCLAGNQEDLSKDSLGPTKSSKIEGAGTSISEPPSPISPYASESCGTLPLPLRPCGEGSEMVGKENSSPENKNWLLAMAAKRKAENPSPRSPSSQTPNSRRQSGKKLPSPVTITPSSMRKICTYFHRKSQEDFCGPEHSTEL

Molecular target: Myc-RUVBL1 (UniProt Q9Y265)
Experiment: affinity purification with mass spectrometry; HEK293T cells transfected with control vector or Myc-RUVBL1; IP with Myc antibody on protein G/A magnetic beads, SDS-PAGE, gel slices to mass spectrometry

binding: binds
Substance: DTL (from UniProt Q9NZJ0 1-730)
